Measured values published in publication PMC6751634.
No constants are given. Whether binding was seen depends on the method and setting. Binding seen in cells or lysates may run through a third protein. Some binding calls cover weakened binding; strength is not graded here.

Amino acid sequences for entries named in this document (tags omitted).
UniProt Q3TKT4: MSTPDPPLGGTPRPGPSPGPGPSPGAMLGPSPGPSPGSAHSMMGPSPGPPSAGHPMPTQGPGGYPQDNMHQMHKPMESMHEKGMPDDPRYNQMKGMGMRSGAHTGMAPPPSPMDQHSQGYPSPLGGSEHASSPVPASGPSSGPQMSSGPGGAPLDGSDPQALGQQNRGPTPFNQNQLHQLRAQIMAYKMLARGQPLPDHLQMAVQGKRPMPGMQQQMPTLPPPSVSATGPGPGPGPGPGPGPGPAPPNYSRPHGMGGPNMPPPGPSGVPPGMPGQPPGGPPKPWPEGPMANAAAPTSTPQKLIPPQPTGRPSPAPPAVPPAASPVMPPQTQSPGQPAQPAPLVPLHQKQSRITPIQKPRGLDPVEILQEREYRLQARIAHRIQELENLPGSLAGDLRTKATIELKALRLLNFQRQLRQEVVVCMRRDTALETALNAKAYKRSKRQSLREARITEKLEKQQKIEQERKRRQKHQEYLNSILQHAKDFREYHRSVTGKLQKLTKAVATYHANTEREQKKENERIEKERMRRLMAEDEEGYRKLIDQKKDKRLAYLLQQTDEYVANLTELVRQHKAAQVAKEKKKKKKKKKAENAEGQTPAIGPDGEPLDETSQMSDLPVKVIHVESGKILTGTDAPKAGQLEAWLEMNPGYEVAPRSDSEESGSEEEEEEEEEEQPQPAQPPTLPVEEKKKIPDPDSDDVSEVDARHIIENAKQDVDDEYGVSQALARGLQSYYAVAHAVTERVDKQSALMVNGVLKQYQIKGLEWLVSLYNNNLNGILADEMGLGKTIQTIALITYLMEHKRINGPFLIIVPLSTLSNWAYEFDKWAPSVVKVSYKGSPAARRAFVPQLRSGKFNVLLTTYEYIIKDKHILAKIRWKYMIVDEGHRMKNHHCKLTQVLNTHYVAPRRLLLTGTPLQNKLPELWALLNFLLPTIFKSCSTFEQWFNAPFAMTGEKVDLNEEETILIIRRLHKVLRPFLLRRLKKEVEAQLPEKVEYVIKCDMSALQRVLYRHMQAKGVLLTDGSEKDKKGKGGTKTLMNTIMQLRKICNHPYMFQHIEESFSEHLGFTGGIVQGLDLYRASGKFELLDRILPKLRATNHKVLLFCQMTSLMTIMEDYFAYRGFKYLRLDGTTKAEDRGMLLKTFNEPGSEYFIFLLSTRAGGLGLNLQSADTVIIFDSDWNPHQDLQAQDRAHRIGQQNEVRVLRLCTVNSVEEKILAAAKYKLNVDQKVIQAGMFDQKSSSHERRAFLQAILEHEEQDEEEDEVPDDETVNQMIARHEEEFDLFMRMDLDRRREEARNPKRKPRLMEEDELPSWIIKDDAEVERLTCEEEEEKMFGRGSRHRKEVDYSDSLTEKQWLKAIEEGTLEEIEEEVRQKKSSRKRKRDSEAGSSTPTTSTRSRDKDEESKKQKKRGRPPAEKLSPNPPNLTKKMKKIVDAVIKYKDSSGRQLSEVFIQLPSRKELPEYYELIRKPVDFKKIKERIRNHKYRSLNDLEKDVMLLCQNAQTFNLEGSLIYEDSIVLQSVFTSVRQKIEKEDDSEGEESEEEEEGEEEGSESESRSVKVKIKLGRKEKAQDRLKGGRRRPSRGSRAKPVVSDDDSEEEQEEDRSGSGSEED
UniProt P10085: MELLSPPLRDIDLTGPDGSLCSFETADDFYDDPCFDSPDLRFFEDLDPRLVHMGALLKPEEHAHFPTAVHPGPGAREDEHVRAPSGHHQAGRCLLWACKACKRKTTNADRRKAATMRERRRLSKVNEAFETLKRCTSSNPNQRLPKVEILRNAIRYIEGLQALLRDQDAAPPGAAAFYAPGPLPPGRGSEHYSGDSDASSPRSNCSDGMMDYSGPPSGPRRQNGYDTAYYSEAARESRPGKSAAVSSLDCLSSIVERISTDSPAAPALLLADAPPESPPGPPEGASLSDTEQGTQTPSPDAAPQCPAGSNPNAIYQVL

Tests used:
[1] = biological target: wild-type Brg1 (WT-Brg1) expressed in Brg1-depleted primary mouse myoblasts (UniProt Q3TKT4); assay: co-IP; lysates of 24 h differentiated primary mouse myoblasts (C57BL/6, or Brg1-deleted and expressing WT-, SA- or SE-Brg1); IP with pan-calcineurin A antibody or Brg1 antisera, protein A magnetic beads, wash with 300 mM NaCl, 0.5% NP-40, 1 mM CaCl2; Western blot
[2] = biological target: Brahma related gene 1 (Brg1), endogenous (mouse (endogenous in C2C12 and primary mouse myoblasts)) (UniProt Q3TKT4); assay: as above

MyoD (from UniProt P10085 1-318) was tested, and the binding [1] was “binds” and the binding [2] was “binds”.
